Data set [1] in a line: general procedure: Fmoc solid-phase peptide synthesis; Rink resin; DIPCDI/HOBt; PyBOP/HOBt/DIPEA for the cinnamic acid cap. As to conditions: whole synthesis, scale 0.12 mmol.
The nature of data set [2]: general procedure: Fmoc solid-phase peptide synthesis; Rink-linker-derivatized PL-DMA resin; Rink resin; DIPCDI/HOBt; PyBOP/HOBt/DIPEA for the cinnamic acid cap. To be noted: whole synthesis, analytical HPLC in ACN/H2O (0.1% TFA) and MeOH/0.01 M NH4OAc, scale of the general procedure ca 0.18 mmole.
Data set [3] is described as follows: general procedure: Fmoc solid-phase peptide synthesis; Rink-derivatized PL-DMA resin; DIPCDI/HOBt; PyBOP/HOBt/DIPEA for the cinnamic acid cap. To be noted: whole synthesis, scale ca 0.09 mmol (one quarter aliquot).

Experimental findings from patent US20070010428A1 (priority 2004, published 2007) are described below.

Ac-pTyr-Haic-Gln-Thr-NH2 registered a crude mass in data set [1] of 66 mg. In data set [2], the “final HPLC purity” value was over 98%.

Take “Ac-pTyr-Leu-Pro-G1-Thr-mts (YLPQTV; N-acetyl, mts; printed: Tyr-Leu-Pro-Gln-Thr-Val-)”: the crude mass in data set [3] was found to be 114 mg.
